For two substances, binding results are on record in PMC5847621.

Sequences of proteins named here, by UniProt entry; tags and fusion partners are left off. Residues count along the entry.
UniProt P0C2X0, residues 17-511: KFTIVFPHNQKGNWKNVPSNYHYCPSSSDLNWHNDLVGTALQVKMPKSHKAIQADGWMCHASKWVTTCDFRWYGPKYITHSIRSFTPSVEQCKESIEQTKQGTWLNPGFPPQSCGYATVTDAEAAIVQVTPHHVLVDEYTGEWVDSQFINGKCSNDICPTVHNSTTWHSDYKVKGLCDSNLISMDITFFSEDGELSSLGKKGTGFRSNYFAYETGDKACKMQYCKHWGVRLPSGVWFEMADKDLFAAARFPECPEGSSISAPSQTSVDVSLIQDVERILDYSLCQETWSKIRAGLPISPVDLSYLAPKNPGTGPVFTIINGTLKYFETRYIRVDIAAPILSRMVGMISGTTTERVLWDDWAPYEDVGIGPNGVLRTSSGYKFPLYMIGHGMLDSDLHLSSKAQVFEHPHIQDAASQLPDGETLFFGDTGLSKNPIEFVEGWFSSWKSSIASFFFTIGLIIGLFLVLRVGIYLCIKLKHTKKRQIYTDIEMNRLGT

Results are given in words; binding and its absence hold for the method and conditions named. Some results given as binding are weak or reduced against the parent protein; the word gives no strength.

The target of the test is wild-type VSV G glycoprotein expressed at the surface of HEK293T cells (Vesicular stomatitis virus (Indiana Mudd-Summer strain)) (UniProt P0C2X0). The test is described as follows: flow cytometry on cells; only the binder purified. A general note: A flow cytometer gives signals particle by particle.

Take “GST-CR2 fluorescently labeled with ATTO550 (from UniProt P01130-1 65-106) (domain or fragment)”: the binding entry is listed as “binds”.
Regarding “GST-CR3 fluorescently labeled with ATTO550 (from UniProt P01130-1 108-144) (domain or fragment)”, the binding entry was “binds”.
